# Results from patent US11872270B2, “A*03 restricted peptides for use in immunotherapy against cancers and related methods” (Immatics Biotechnologies GmbH, priority 2018, dated 2024).
# For some assays here: For expression read-outs the peptide stands for its source gene, whose mRNA was measured; the gene is not named for every peptide.
# Columns and labels:
# [1] = system: HLA molecules from shock-frozen tissue samples; test: Identification and quantitation of tumor associated peptides presented on the cell surface (HLA immunoprecipitation, LC-MS); parameters: species or system human
# [2] = system: source genes (mRNA) in tumor and normal tissue; test: Expression profiling of genes encoding the peptides (RNAseq); parameters: species or system human; details: for Gene Expression in tumor samples: over-expressed (+): tumor entities in which the source gene is over-expressed vs panel of normal tissues (Table 9a); for Gene Expression in tumor samples: very highly over-expressed (+++): tumor entities in which the source gene is very highly over-expressed vs panel of normal tissues (Table 9a); for Gene Expression in tumor samples: highly over-expressed (++): tumor entities in which the source gene is highly over-expressed vs panel of normal tissues (Table 9a)
# [3] = cancer entities on which the peptide was detected by LC-MS of HLA ligands
# [4] = cancer entities on which the peptide was found presented (Table 8b)
Substance,"Peptide Presentation on cancer entities [1, 3]",Gene Expression in tumor samples: over-expressed (+) [2],"Peptide Presentation on cancer entities [1, 4]",also measured
5: peptide found in SLC6A3 (gene looked up) (AMVPIYAAY; listed as Homo sapiens) [compound 5],RCC,"NSCLCadeno, NSCLCsquam, SCLC",,Gene Expression in tumor samples: very highly over-expressed (+++) [2]: RCC
12: peptide found in CHRNA9 (gene looked up) (KVLTRNIEY; listed as Homo sapiens) [compound 12],GBC,"MEL, NSCLCadeno, NSCLCsquam, OC, OSCAR, UBC, UEC",,"Gene Expression in tumor samples: highly over-expressed (++) [2]: GBM, HNSCC, SCLC; Gene Expression in tumor samples: very highly over-expressed (+++) [2]: NSCL; Cother"
15: peptide found in CYP4Z1 (gene looked up) (RLYAPVVNISRL; listed as Homo sapiens) [compound 15],BRCA,,,Gene Expression in tumor samples: very highly over-expressed (+++) [2]: BRCA
16: peptide found in IGF2BP1 (gene looked up) (KVFAEHKISY; listed as Homo sapiens) [compound 16],HNSCC,"CCC, NSCLCother, PACA, RCC, UBC",,"Gene Expression in tumor samples: highly over-expressed (++) [2]: CRC, GC, HCC, HNSCC, MEL, NHL, NSCLCadeno, NSCLCsquam, OC, OSCAR, SCLC; Gene Expression in tumor samples: very highly over-expressed (+++) [2]: GBC"
23: peptide found in KISS1R (gene looked up) (RLSPGPRAY; listed as Homo sapiens) [compound 23],RCC,"BRCA, NSCLCadeno, UEC",,Gene Expression in tumor samples: highly over-expressed (++) [2]: RCC
25: peptide found in KISS1R (gene looked up) (KTWAHCMSY; listed as Homo sapiens) [compound 25],"BRCA, NSCLCadeno, RCC","BRCA, NSCLCadeno, UEC",,Gene Expression in tumor samples: highly over-expressed (++) [2]: RCC
26: peptide found in PGR (gene looked up) (QLGYQAAVLK; listed as Homo sapiens) [compound 26],GBM,BRCA,,Gene Expression in tumor samples: highly over-expressed (++) [2]: UEC
27: peptide found in PGR (gene looked up) (SGSTLECILYK; listed as Homo sapiens) [compound 27],UEC,BRCA,,Gene Expression in tumor samples: highly over-expressed (++) [2]: UEC
28: peptide found in PGR (gene looked up) (STLECILYK; listed as Homo sapiens) [compound 28],UEC,BRCA,,Gene Expression in tumor samples: highly over-expressed (++) [2]: UEC
34: peptide found in HTR3A (gene looked up) (AIGTPLIGK; listed as Homo sapiens) [compound 34],"CRC, NSCLCadeno, UEC",NSCLCadeno,,"Gene Expression in tumor samples: highly over-expressed (++) [2]: NHL, OC"
89: peptide found in KISS1R (gene looked up) (VIYVICRHK; listed as Homo sapiens) [compound 89],,"NSCLCadeno, UEC",,Gene Expression in tumor samples: highly over-expressed (++) [2]: RCC
136: peptide found in CYP1A1 (gene looked up) (ALSRMSQQY; listed as Homo sapiens) [compound 136],,,,Gene Expression in tumor samples: highly over-expressed (++) [2]: NSCLCother
203: peptide found in RXFP1 (gene looked up) (IVAFIPLSNK; listed as Homo sapiens) [compound 203],,UEC,,
204: peptide found in RXFP1 (gene looked up) (VAFIPLSNK; listed as Homo sapiens) [compound 204],,UEC,,
217 (RVYEGDGRNSLK; listed as Homo sapiens) [compound 217],NHL,,,
218 (KAFNQSSIFTK; listed as Homo sapiens) [compound 218],"CCC, NHL, NSCLCadeno",,,
219 (ALERKFRQK; listed as Homo sapiens) [compound 219],"CRC, UEC",,,
221 (RLAVSTRGK; listed as Homo sapiens) [compound 221],NSCLCadeno,,,
223 (GISNPITTSK; listed as Homo sapiens) [compound 223],"HCC, HNSCC, NHL, NSCLCadeno, NSCLCother, NSCLCsquam, PRCA, RCC, UEC",,,

Substance,"Peptide Presentation on cancer entities [1, 3]",Gene Expression in tumor samples: over-expressed (+) [2],"Peptide Presentation on cancer entities [1, 4]",also measured
224 (SLYDGFLSY; listed as Homo sapiens) [compound 224],"GBM, NSCLCadeno",,,
226 (RVWLGKHYK; listed as Homo sapiens) [compound 226],"BRCA, CRC, HCC, HNSCC, MEL, NSCLCother, OSCAR, SCLC, UBC, UEC",,,
252 (AVYNYPEGAAY; listed as Homo sapiens) [compound 252],,,UEC,
253 (KLSLSHKK; listed as Homo sapiens) [compound 253],,,"CRC, MEL, NSCLCadeno",
254 (SVLDKLLFH; listed as Homo sapiens) [compound 254],,,"NHL, RCC",
255 (VRTLPFLIK; listed as Homo sapiens) [compound 255],,,"GBC, HCC",
256 (AVIGALLAVGATK; listed as Homo sapiens) [compound 256],,,MEL,
257 (LAELEGALQK; listed as Homo sapiens) [compound 257],,,"BRCA, CCC",
259 (RSYVPLAH; listed as Homo sapiens) [compound 259],,,MEL,
261 (AVAQKLLSH; listed as Homo sapiens) [compound 261],,,"HCC, NHL, OC, UEC",
263 (RTYQLYSR; listed as Homo sapiens) [compound 263],,,"CCC, MEL, OC, PRCA, UEC",
264 (VIFDAVTEQ; listed as Homo sapiens) [compound 264],,,"GBM, HCC, MEL, NHL, NSCLCother, OSCAR, RCC, UBC",
265 (KIYEFRLMM; listed as Homo sapiens) [compound 265],,,"HNSCC, OC, PACA",
267 (VLKSITVKV; listed as Homo sapiens) [compound 267],,,"HCC, MEL, NSCLCsquam",
268 (KVDMKDVTKI; listed as Homo sapiens) [compound 268],,,"BRCA, CRC, GBM, HCC, MEL, NHL, NSCLCadeno, NSCLCother, NSCLCsquam, RCC, UBC, UEC",
269 (KITDFNNIR; listed as Homo sapiens) [compound 269],,,"AML, BRCA, GBC, GBM, HCC, HNSCC, MEL, NHL, NSCLCadeno, OC, OSCAR, PACA, RCC, UEC",
KTWAHCMSY (listed as Homo sapiens) [SEQ ID NO: 25],"breast cancer, non-small cell lung cancer, and renal cell carcinoma",,,
RVYPHKTLY (listed as Homo sapiens) [SEQ ID NO: 1],"hepatocellular carcinoma, and urinary bladder carcinoma",,,
